Measurements: patent publication US20250283871A1, “COMPOSITIONS AND METHODS FOR MODULATING THE INTERACTION BETWEEN SS18-SSX FUSION ONCOPROTEIN AND NUCLEOSOMES” (Dana-Farber Cancer Institute, Inc., priority 2020, published 2025)

Test system: BAF complex subunits and histone proteins
Assay: Mass spectrometry proteomics of purified HA-SS18 WT and HA-SS18-SSX1 complexes (Tables 5A-5E)
Design: species or system human
Details: HEK-293T
[1] = HA-SS18SSX1_CHR_peptides: proteins found in HA-SS18-SSX1 BAF complex purification from solubilized chromatin (CHR)
[2] = HA-SS18SSX1 purification, NE (soluble nuclear extract) fraction, peptides per identified protein
[3] = HA-SS18WT_NE_peptides: HA-SS18 WT complexes purified from nuclear extract (NE), label = protein identified (Gene Symbol)
[4] = HA-SS18WT_CHR_peptides: protein identified in HA-SS18 WT BAF complex purification from nuclease-treated solubilized chromatin (CHR)

Molecule | Total (peptides) [1] | Unique (peptides) [1] | Total (total peptides) [2] | Unique (unique peptides) [2] | Total (peptides) [3] | Unique (peptides) [3] | Total (total peptides) [4] | Unique (unique peptides) [4]
HSD17B12 (protein, UniProt Q53GQ0 1-312, looked up) Very-long-chain 3-oxoacyl-CoA …: MESALPAAGFLYWVGAGTVAYLALRISYSLFTALRVWGVGNEAGVGPGLGEWAVVTGSTDGIGKSYAEELAKHGMKVVLISRSKDKLDQVSSEIKEKFKVETRTIAVDFASEDIYDKIKTGLAGLEIGILVNNVGMSYEYPEYFLDVPDLDNVIKKMININILSVCKMTQLVLPGMVERSKGAILNISSGSGMLPVPLLTIYSATKTFVDFFSQCLHEEYRSKGVFVQSVLPYFVATKLAKIRKPTLDKPSPETFVKSAIKTVGLQSRTNGYLIHALMGSIISNLPSWIYLKIVMNMNKSTRAHYLKKTKKN | 1 | 1 | 11 | 9 | 10 | 9 | – | –
PRMT8 (protein, UniProt Q9NR22 2-394, looked up) Protein arginine …: GMKHSSRCLLLRRKMAENAAESTEVNSPPSQPPQPVVPAKPVQCVHHVSTQPSCPGRGKMSKLLNPEEMTSRDYYFDSYAHFGIHEEMLKDEVRTLTYRNSMYHNKHVFKDKVVLDVGSGTGILSMFAAKAGAKKVFGIECSSISDYSEKIIKANHLDNIITIFKGKVEEVELPVEKVDIIISEWMGYCLFYESMLNTVIFARDKWLKPGGLMFPDRAALYVVAIEDRQYKDFKIHWWENVYGFDMTCIRDVAMKEPLVDIVDPKQVVTNACLIKEVDIYTVKTEELSFTSAFCLQIQRNDYVHALVTYFNIEFTKCHKKMGFSTAPDAPYTHWKQTVFYLEDYLTVRRGEEIYGTISMKPNAKNVRDLDFTVDLDFKGQLCETSVSNDYKMR | 1 | 1 | – | – | – | – | – | –
ETFA (protein, UniProt P13804 20-333, looked up) Electron transfer …: QSTLVIAEHANDSLAPITLNTITAATRLGGEVSCLVAGTKCDKVAQDLCKVAGIAKVLVAQHDVYKGLLPEELTPLILATQKQFNYTHICAGASAFGKNLLPRVAAKLEVAPISDIIAIKSPDTFVRTIYAGNALCTVKCDEKVKVFSVRGTSFDAAATSGGSASSEKASSTSPVEISEWLDQKLTKSDRPELTGAKVVVSGGRGLKSGENFKLLYDLADQLHAAVGASRAAVDAGFVPNDMQVGQTGKIVAPELYIAVGISGAIQHLAGMKDSKTIVAINKDPEAPIFQVADYGIVADLFKVVPEMTEILKKK | 1 | 1 | 4 | 3 | 4 | 4 | – | –
INA (protein, UniProt Q16352 1-499, looked up) Alpha-internexin: MSFGSEHYLCSSSSYRKVFGDGSRLSARLSGAGGAGGFRSQSLSRSNVASSAACSSASSLGLGLAYRRPPASDGLDLSQAAARTNEYKIIRTNEKEQLQGLNDRFAVFIEKVHQLETQNRALEAELAALRQRHAEPSRVGELFQRELRDLRAQLEEASSARSQALLERDGLAEEVQRLRARCEEESRGREGAERALKAQQRDVDGATLARLDLEKKVESLLDELAFVRQVHDEEVAELLATLQASSQAAAEVDVTVAKPDLTSALREIRAQYESLAAKNLQSAEEWYKSKFANLNEQAARSTEAIRASREEIHEYRRQLQARTIEIEGLRGANESLERQILELEERHSAEVAGYQDSIGQLENDLRNTKSEMARHLREYQDLLNVKMALDIEIAAYRKLLEGEETRFSTSGLSISGLNPLPNPSYLLPPRILSATTSKVSSTGLSLKKEEEEEEASKVASKKTSQIGESFEEILEETVISTKKTEKSNIEETTISSQKI | 1 | 1 | – | – | – | – | 1 | 1
TMEM201 (protein, UniProt Q5SNT2 1-666, looked up) Transmembrane protein 201: MEGVSALLARCPTAGLAGGLGVTACAAAGVLLYRIARRMKPTHTMVNCWFCNQDTLVPYGNRNCWDCPHCEQYNGFQENGDYNKPIPAQYLEHLNHVVSSAPSLRDPSQPQQWVSSQVLLCKRCNHHQTTKIKQLAAFAPREEGRYDEEVEVYRHHLEQMYKLCRPCQAAVEYYIKHQNRQLRALLLSHQFKRREADQTHAQNFSSAVKSPVQVILLRALAFLACAFLLTTALYGASGHFAPGTTVPLALPPGGNGSATPDNGTTPGAEGWRQLLGLLPEHMAEKLCEAWAFGQSHQTGVVALGLLTCLLAMLLAGRIRLRRIDAFCTCLWALLLGLHLAEQHLQAASPSWLDTLKFSTTSLCCLVGFTAAVATRKATGPRRFRPRRFFPGDSAGLFPTSPSLAIPHPSVGGSPASLFIPSPPSFLPLANQQLFRSPRRTSPSSLPGRLSRALSLGTIPSLTRADSGYLFSGSRPPSQVSRSGEFPVSDYFSLLSGSCPSSPLPSPAPSVAGSVASSSGSLRHRRPLISPARLNLKGQKLLLFPSPPGEAPTTPSSSDEHSPHNGSLFTMEPPHVPRKPPLQDVKHALDLRSKLERGSACSNRSIKKEDDSSQSSTCVVDTTTRGCSEEAATWRGRFGPSLVRGLLAVSLAANALFTSVFLYQSLR | 1 | 1 | – | – | – | – | – | –
PSD4 (protein, UniProt Q8NDX1 1-1056, looked up) PH and SEC7 domain-containing …: MMGDYRLPDHPQPMEILNLYLGDSLEPHPGECPRETCSHEDPPEPFEEQTWATDPPEPTRQNVPPWGSGVELTHLGSWVHQDGLEPCQEQTRATDPPESTRQDAPPWGSGVELTHLGSPSAQREHRQNTASPGSPVNSHLPGSPKQNRSTSTQVVFWAGILQAQMCVLDLEEELEKTEGLKAGLKCCLPTPPVDLPGDTGLHSSPPENEDSGEDSSEPEGEGQAWLREGTPDSSPQWGAEEESMFFSNPLFLASPCSENSASGECFSWGASDSHAGVRTGPESPATLEPPLPEDTVLWELESEPDLGDGAAISGHCTPPFPVPIYKPHSICWASVAAAEGAPAAPPGHGESEGDRLGPAPSAAPCVDEALTWESGCVGSDLGPAAHPVQPWASLSPEGWQRGGPFWPQVTLNSQDRDEREGGHPQESLPCTLAPCPWRSPASSPEPSSPESESRGPGPRPSPASSQEGSPQLQHHSSGILPKWTLDASQSSLLETDGEQPSSLKKKEAGEAPKPGEEVKSEGTARPAETGDVQPDIHLTSAEHENLRTPMNSSWLPGSPMPQAQSPEEGQRPPAGDKLANGVRNNKVAWNLASRLYRLEGFRKSEVAAYLQKNNDFSRAVAEEYLSFFQFGGQSLDRALRSFLQALVLSGETQERERILYQFSRRFHHCNPGIFPSVDSVHTLTCAIMLLNTDLHGQNIGKSMSCQEFITNLNGLRDGGNFPKELLKALYWSIRSEKLEWAVDEEDTARPEKAQPSLPAGKMSKPFLQLAQDPTVPTYKQGILARKMHQDADGKKTPWGKRGWKMFHTLLRGMVLYFLKQGEDHCLEGESLVGQMVDEPVGVHHSLATPATHYTKKPHVFQLRTADWRLYLFQAPTAKEMSSWIARINLAAATHSAPPFPAAVGSQRRFVRPILPVGPAQSSLEEQHRSHENCLDAAADDLLDLQRNLPERRGRGRELEEHRLRKEYLEYEKTRYETYVQLLVARLHCPSDALDLWEEQLGREAGGTREPKLSLKKSHSSPSLHQDEAPTTAKVKRNISERRTYRKIIPKRNRNQL | 1 | 1 | – | – | – | – | – | –
C1orf131 (protein, UniProt Q8NDD1 1-293, looked up) 40S small subunit processome …: MRVDSSADPTMSQEQGPGSSTPPSSPTLLDALLQNLYDFGGTEGETEQKKIIKKRENKKRDVMASAALAAEPSPLPGSLIRGQRKSASSFFKELREERHCAPSGTPTGPEILAAAVPPSSLKNNREQVEVVEFHSNKKRKLTPDHNKNTKQANPSVLERDVDTQEFNLEKARLEVHRFGITGYGKGKERILEQERAIMLGAKPPKKSYVNYKVLQEQIKEKKAAKEEEKRLAQETDIFKKKKRKGQEDRKSKKKSAPSILSNGRIGQVGKFKNGTLILSPVDIKKINSSRVAK | 1 | 1 | – | – | – | – | – | –
ZFX (protein, UniProt P17010 1-805, looked up) Zinc finger X-chromosomal …: MDEDGLELQQEPNSFFDATGADGTHMDGDQIVVEVQETVFVSDVVDSDITVHNFVPDDPDSVVIQDVIEDVVIEDVQCPDIMEEADVSETVIIPEQVLDSDVTEEVSLAHCTVPDDVLASDITSASMSMPEHVLTGDSIHVSDVGHVGHVGHVEHVVHDSVVEAEIVTDPLTTDVVSEEVLVADCASEAVIDANGIPVDQQDDDKGNCEDYLMISLDDAGKIEHDGSSGMTMDTESEIDPCKVDGTCPEVIKVYIFKADPGEDDLGGTVDIVESEPENDHGVELLDQNSSIRVPREKMVYMTVNDSQPEDEDLNVAEIADEVYMEVIVGEEDAAAAAAAAAVHEQQMDDNEIKTFMPIAWAAAYGNNSDGIENRNGTASALLHIDESAGLGRLAKQKPKKRRRPDSRQYQTAIIIGPDGHPLTVYPCMICGKKFKSRGFLKRHMKNHPEHLAKKKYRCTDCDYTTNKKISLHNHLESHKLTSKAEKAIECDECGKHFSHAGALFTHKMVHKEKGANKMHKCKFCEYETAEQGLLNRHLLAVHSKNFPHICVECGKGFRHPSELKKHMRIHTGEKPYQCQYCEYRSADSSNLKTHVKTKHSKEMPFKCDICLLTFSDTKEVQQHALIHQESKTHQCLHCDHKSSNSSDLKRHIISVHTKDYPHKCDMCDKGFHRPSELKKHVAAHKGKKMHQCRHCDFKIADPFVLSRHILSVHTKDLPFRCKRCRKGFRQQSELKKHMKTHSGRKVYQCEYCEYSTTDASGFKRHVISIHTKDYPHRCEYCKKGFRRPSEKNQHIMRHHKEVGLP | 1 | 1 | – | – | – | – | 1 | 1
NUPL2 (protein, UniProt O15504 1-423, looked up) Nucleoporin NUP42: MAICQFFLQGRCRFGDRCWNEHPGARGAGGGRQQPQQQPSGNNRRGWNTTSQRYSNVIQPSSFSKSTPWGGSRDQEKPYFSSFDSGASTNRKEGFGLSENPFASLSPDEQKDEKKLLEGIVKDMEVWESSGQWMFSVYSPVKKKPNISGFTDISPEELRLEYHNFLTSNNLQSYLNSVQRLINQWRNRVNELKSLNISTKVALLSDVKDGVNQAAPAFGFGSSQAATFMSPGFPVNNSSSDNAQNFSFKTNSGFAAASSGSPAGFGSSPAFGAAASTSSGISTSAPAFGFGKPEVTSAASFSFKSPAASSFGSPGFSGLPASLATGPVRAPVAPAFGGGSSVAGFGSPGSHSHTAFSKPSSDTFGNSSISTSLSASSSIIATDNVLFTPRDKLTVEELEQFQSKKFTLGKIPLKPPPLELLNV | 1 | 1 | – | – | – | – | – | –
PIP (protein, UniProt P12273 29-146, looked up) Prolactin-inducible protein: QDNTRKIIIKNFDIPKSVRPNDEVTAVLAVQTELKECMVVKTYLISSIPLQGAFNYKYTACLCDDNPKTFYWDFYTNRTVQIAAVVDVIRELGICPDDAAVIPIKNNRFYTIEILKVE | 1 | 1 | – | – | – | – | – | –
